This is one part of the list. Measured potencies and affinities stand elsewhere. Square brackets hold non-standard residues; d marks the D form. Peptide text beside a SMILES is read from it. pGlu = O=C1CC[C@@H](C(=O)O)N1; Thz = O=C(O)[C@@H]1CSCN1

This test concerns Pseudomonas aeruginosa. The settings on record: Concentration 20 uM; ASSAY_TEST Inhibition of Bacterial Growth; detection method Absorption (OD600); MEDIA CAMHB; plate type 384well; NBS; CORNING #3640; time 18 hr.
Broadly, the Inhibition is the change of the read-out against control, counted positive when it falls. Regarding `Nc1nc(N)c2nc(-c3ccccc3)c(N)nc2n1`, the Inhibition worked out at 9.67%.
The value for `COc1cc(OC)c(C(=O)CCCN2CCCC2)c(OC)c1.Cl` was 20.78%; that for `CC1(C)S[C@@H]2[C@H](NC(=O)[C@H](N)c3ccc(O)cc3)C(=O)N2[C@H]1C(=O)O` [AMOXICILLIN] was 10.8%; that for `Cl.OC(CCN1CCCC1)(c1ccccc1)C1CCCCC1` (centres undefined) [PROCYCLIDINE HYDROCHLORIDE] was 7.85%.
In the case of `COc1ccc(-c2cc(=O)c3c(OC)c(OC)c(OC)c(OC)c3o2)cc1OC` [NOBILETIN] it was 15.83%.
Take `CCN(CC)CCNC(=O)c1ccc(N)cc1.Cl` [PROCAINAMIDE HYDROCHLORIDE]: the Inhibition was found to be 1.69%.
Regarding `NNC(=O)c1ccncc1` [ISONIAZID], the Inhibition is recorded as 1.16%.
Take `CC(C)[C@H](N)C(=O)OCCOCn1cnc2c(=O)nc(N)[nH]c21.Cl` [VALACYCLOVIR HYDROCHLORIDE]: the Inhibition amounted to 17.42%.
In the case of `Cl.Nc1c2c(nc3ccccc13)CCCC2` [TACRINE HYDROCHLORIDE] it was 19.73%; in that of `CCOC(=O)c1ccc(OC(=O)CCCCCN=C(N)N)cc1.CS(=O)(=O)O`, 17.94%; in that of `O=C(O)c1cccnc1` [NIACIN], 7.84%.
On to `CC(=O)Nc1nnc(S(N)(=O)=O)s1` [ACETAZOLAMIDE], for which the Inhibition came to 10.89%.
For `CC(C)Oc1ccc2c(=O)c(-c3ccccc3)coc2c1` [IPRIFLAVONE], the Inhibition worked out at 14.52%.
In the case of `CCCCC(=O)O[C@H]1CC[C@H]2[C@@H]3CCc4cc(O)ccc4[C@H]3CC[C@]12C` [ESTRADIOL VALERATE] it was 3.52%; in that of `Cl.Clc1ccccc1CN1CCc2sccc2C1` [TICLOPIDINE HYDROCHLORIDE], 13.69%.
As for `CC(Cc1ccccc1)(NC(=O)CN)c1ccccc1.Cl` (centres undefined) [REMACEMIDE HYDROCHLORIDE], the Inhibition is recorded as 20.6%.
With `CNCC(O)c1ccc(O)c(O)c1` (centres undefined) [RACEPINEPHRINE], the Inhibition turned out to be 18.53%.
Turning to `Cc1ccc(-c2cc(C(F)(F)F)nn2-c2ccc(S(N)(=O)=O)cc2)cc1` [CELECOXIB], the Inhibition was found to be 8.62%.
With `C[C@@H]1CN(CCCn2c3ccccc3c3ccccc32)C[C@H](C)N1.Cl.O`, the Inhibition is 11.4%.
In the case of `Cc1cccc(C)c1OCC(C)N.Cl` (centres undefined) [MEXILETINE HYDROCHLORIDE] it was 15.77%; in that of `CN(C)CCCN1c2ccccc2CCc2ccc(Cl)cc21.Cl` [CLOMIPRAMINE HYDROCHLORIDE], 21.88%.
Regarding `COc1cc2nc(N3CCN(C(=O)C4COc5ccccc5O4)CC3)nc(N)c2cc1OC` (centres undefined) [DOXAZOSIN], the Inhibition is listed as 9.67%.
Take `COc1ccc(Cl)cc1C(=O)NCCc1ccc(S(=O)(=O)NC(=O)NC2CCCCC2)cc1` [GLYBURIDE]: the Inhibition is on record as -8.45%.
The value for `CC(COc1ccccc1)NC(C)C(O)c1ccc(O)cc1.Cl` (centres undefined) [ISOXSUPRINE HYDROCHLORIDE] was 1.64%; that for `Cl.O=C(O)/C=C/c1ccc(Cn2ccnc2)cc1` was 2.38%; that for `CC(CN1c2ccccc2Sc2ccccc21)N(C)C.Cl` (centres undefined) [PROMETHAZINE HYDROCHLORIDE] was 14.84%.
As to `CCOC(=O)O[C@]1(C(=O)OCCl)CC[C@H]2[C@@H]3CCC4=CC(=O)C=C[C@]4(C)[C@H]3[C@@H](O)C[C@@]21C` [LOTEPREDNOL ETABONATE], the Inhibition was found to be 16.35%.
As for `CCCNC(=O)NS(=O)(=O)c1ccc(Cl)cc1` [CHLORPROPAMIDE], the Inhibition amounted to 18.11%.
In the case of `CC[C@H](C)C(=O)O[C@H]1CCC=C2C=C[C@H](C)[C@H](CC[C@@H]3C[C@@H](O)CC(=O)O3)[C@H]21` [MEVASTATIN] it was 2.53%; in that of `CC=CC(=O)N(CC)c1ccccc1C`, 1.59%; in that of `Nc1nc2c(ncn2COC(CO)CO)c(=O)[nH]1` [GANCICLOVIR], 9.56%.
As to `Cc1cccc(CCN2CCC(C(=O)c3ccc(NS(C)(=O)=O)cc3)CC2)n1.Cl.Cl`, the Inhibition came out at 12%.
In the case of `CC(C)NCC(O)COc1ccc(CC(N)=O)cc1` (centres undefined) [ATENOLOL] it was 6.08%; in that of `Cc1[nH]cnc1CN1CCc2c(c3ccccc3n2C)C1=O.Cl` [ALOSETRON HYDROCHLORIDE], 11.96%; in that of `CCOC(=O)[C@H](CCc1ccccc1)N[C@@H](C)C(=O)N1[C@H](C(=O)O)C[C@@H]2CCC[C@@H]21`, 53.62%.
In the case of `Nc1ncnc2c1ncn2[C@@H]1O[C@H](CO)[C@@H](O)[C@@H]1O` [VIDARABINE] it was 12.75%.
The value for `NC(CO)(CO)CO.O=C(c1ccccc1)c1ccc2n1CCC2C(=O)O` (centres undefined) [KETOROLAC TROMETHAMINE] was 16.5%.
Consider `CCOc1cc(N)c(Cl)cc1C(=O)NCC1CN(Cc2ccc(F)cc2)CCO1.O=C(O)CC(O)(CC(=O)O)C(=O)O` (centres undefined) [MOSAPRIDE CITRATE], for which the Inhibition came to 12.23%.
The value for `Cl.NC[C@H]1CC[C@H](C(=O)Oc2ccc(CCC(=O)O)cc2)CC1` [CETRAXATE HYDROCHLORIDE] was 11.42%; that for `O=C1CC[C@@H](C(=O)N2CSC[C@H]2C(=O)O)N1` [PIDOTIMOD] ([pGlu]-[Thz]-OH) was 34.23%.
In the case of `CCC1(c2ccccc2)C(=O)NCNC1=O` [PRIMIDONE] it was 10.25%; in that of `NC(N)=Nc1nc(CSCC/C(N)=N/S(N)(=O)=O)cs1` [FAMOTIDINE], 4.47%.
In the case of `CC1=C(/C=C/C(C)=C/C=C/C(C)=C\C(=O)O)C(C)(C)CCC1` [ISOTRETINOIN] it was 3.08%; in that of `CCCCC(=O)OC1(C(=O)CO)CCC2C3CCC4=CC(=O)CCC4(C)C3C(O)CC21C` (centres undefined), 4.02%; in that of `COc1ccccc1OCC(O)CN1CCN(CC(=O)Nc2c(C)cccc2C)CC1.Cl.Cl` (centres undefined) [RANOLAZINE HYDROCHLORIDE], 12.05%.
As for `Cc1ccc(S(=O)(=O)NC(=O)NN2CCCCCC2)cc1` [TOLAZAMIDE], the Inhibition stood at 4.73%.
In the case of `Nc1ccn([C@@H]2O[C@H](CO)[C@@H](O)[C@@H]2O)c(=O)n1` [CYTARABINE] it was 9.51%; in that of `CO[C@H]1O[C@@H]2O[C@@]3(C)CC[C@H]4[C@H](C)CC[C@@H]([C@H]1C)[C@@]24OO3`, 12.03%; in that of `Cl.O=C1[C@H]2CCCC[C@H]2C(=O)N1CCCCN1CCN(c2nsc3ccccc23)CC1`, 11.31%.

These data come from ChEMBL document CHEMBL4513141, “CO-ADD screening of NIH (USA) - Clinical Collection” (2021).
